Some results were stated once for a whole list of compounds, not compound by compound. Square brackets hold non-standard residues; d marks the D form. Peptide text beside a SMILES is read from it. * marks the point of attachment. Propanoyl(3,3-Ph2) = O=C(CC(c1ccccc1)c1ccccc1)*; Chg = N[C@H](C(=O)O)C1CCCCC1
Target: T1, myostatin (Homo sapiens, UniProt O14793)
T1 sequence (O14793 267-375): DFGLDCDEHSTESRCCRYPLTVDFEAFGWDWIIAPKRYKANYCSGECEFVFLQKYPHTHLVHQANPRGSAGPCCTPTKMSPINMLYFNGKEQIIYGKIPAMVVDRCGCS
Conditions: final concentration of 0.3 μM; 8 ng/mL myostatin
Protocol: Human embryo kidney cell HEK293 cells were cultured in a 5% (v/v) CO2 incubator set to 37° C. using DMEM (NACALAI TESQUE, INC.) including a 10% (v/v) fetal bovine serum (FBS) added with a 1% (v/v) non-essential amino acid (Wako Pure Chemical Corporation).
(2) In Vitro Reporter Assay
HEK293 cells were seeded on a D-Lys-corted 96-well transparent plate (Thermo Fisher Scientific Inc.) in an amount of 2.0×10^4 cells (100 μL DMEM+10% (v/v) FBS) per well and were cultured for 24 hours.
The cells were cultured at 37° C. for 24 hours, and after the cell culture solution was replaced with serum-free DMEM, the cells were cultured for 8 hours. […]
The peptide as a test sample was suspended as a stock solution using DMSO to become 10 mM and stored at −30° C. […] After 20 μL of supernatant subjected to centrifugal separation was transferred to a white 96-well plate (Costar), 50 μL of Luciferase Assay Reagent (Promega Corporation) was then added, emission was detected by Luminoskan Ascent (Thermo Fisher Scientific Inc.), and a firefly luciferase activity was measured. Further, after 50 μL of Stop & Glo Buffer (Promega Corporation) was added, emission was detected by Luminoskan Ascent, and a Renilla luciferase activity was measured to be regarded as an internal control.

`CC[C@H](C)[C@H](NC(=O)[C@H](Cc1ccc(O)cc1)NC(=O)CC(c1ccccc1)c1ccccc1)C(=O)N[C@@H](CCCNC(=N)N)C(=O)N[C@@H](Cc1c[nH]c2ccccc12)C(=O)N[C@H](C(=O)N[C@@H](CCCNC(=N)N)C(=O)N[C@H](C(=O)N[C@@H](CCC(N)=O)C(=O)N[C@H](C(=O)N[C@@H](Cc1c[nH]c2ccccc12)C(=O)N[C@@H](CO)C(=O)N[C@@H](CCCNC(=N)N)C(=O)N[C@H](C(=O)N1CCC[C@H]1C(=O)N[C@@H](CC(C)C)C(N)=O)C1CCCCC1)[C@@H](C)CC)C1CCCCC1)[C@@H](C)CC` [nPDM-85, R^114-YIRWIR-Chg-QIWSR-Chg-PL-NH2] ({Propanoyl(3,3-Ph2)}-YIRWIR[Chg]QIWSR[Chg]PL-NH2) was tested, and the inhibitory activity was ≥ 40%.

From patent US11566047B2, “Peptide or pharmaceutically acceptable salt thereof, or prodrug thereof” (TOKYO UNIVERSITY OF PHARMACY & LIFE SCIENCES, priority 2016, dated 2023)
